In paper PMC3799431:
No constants are given. Whether binding was seen depends on the method and setting. Binding seen in cells or lysates may run through a third protein. Some binding calls cover weakened binding; strength is not graded here.

Protein sequences, listed by entry. Tags and fused reporters are not part of them.
UniProt Q13285: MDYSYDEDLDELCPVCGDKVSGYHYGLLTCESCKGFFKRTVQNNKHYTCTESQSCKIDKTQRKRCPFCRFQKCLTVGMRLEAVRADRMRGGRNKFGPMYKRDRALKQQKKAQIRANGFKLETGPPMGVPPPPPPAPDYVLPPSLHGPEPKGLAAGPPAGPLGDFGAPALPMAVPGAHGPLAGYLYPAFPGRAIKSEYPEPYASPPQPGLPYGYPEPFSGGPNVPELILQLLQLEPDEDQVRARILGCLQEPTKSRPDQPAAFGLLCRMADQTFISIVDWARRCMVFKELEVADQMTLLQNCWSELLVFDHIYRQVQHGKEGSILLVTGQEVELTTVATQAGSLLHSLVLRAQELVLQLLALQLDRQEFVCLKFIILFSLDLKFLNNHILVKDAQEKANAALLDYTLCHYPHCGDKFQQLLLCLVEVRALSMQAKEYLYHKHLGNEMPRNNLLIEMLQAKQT

Target: T1, Neuron-Restrictive Silencer Factor/RE1-Silencing Transcription Factor (NRSF/REST) (human (endogenous in H295R)) (UniProt Q13127)
T1 sequence: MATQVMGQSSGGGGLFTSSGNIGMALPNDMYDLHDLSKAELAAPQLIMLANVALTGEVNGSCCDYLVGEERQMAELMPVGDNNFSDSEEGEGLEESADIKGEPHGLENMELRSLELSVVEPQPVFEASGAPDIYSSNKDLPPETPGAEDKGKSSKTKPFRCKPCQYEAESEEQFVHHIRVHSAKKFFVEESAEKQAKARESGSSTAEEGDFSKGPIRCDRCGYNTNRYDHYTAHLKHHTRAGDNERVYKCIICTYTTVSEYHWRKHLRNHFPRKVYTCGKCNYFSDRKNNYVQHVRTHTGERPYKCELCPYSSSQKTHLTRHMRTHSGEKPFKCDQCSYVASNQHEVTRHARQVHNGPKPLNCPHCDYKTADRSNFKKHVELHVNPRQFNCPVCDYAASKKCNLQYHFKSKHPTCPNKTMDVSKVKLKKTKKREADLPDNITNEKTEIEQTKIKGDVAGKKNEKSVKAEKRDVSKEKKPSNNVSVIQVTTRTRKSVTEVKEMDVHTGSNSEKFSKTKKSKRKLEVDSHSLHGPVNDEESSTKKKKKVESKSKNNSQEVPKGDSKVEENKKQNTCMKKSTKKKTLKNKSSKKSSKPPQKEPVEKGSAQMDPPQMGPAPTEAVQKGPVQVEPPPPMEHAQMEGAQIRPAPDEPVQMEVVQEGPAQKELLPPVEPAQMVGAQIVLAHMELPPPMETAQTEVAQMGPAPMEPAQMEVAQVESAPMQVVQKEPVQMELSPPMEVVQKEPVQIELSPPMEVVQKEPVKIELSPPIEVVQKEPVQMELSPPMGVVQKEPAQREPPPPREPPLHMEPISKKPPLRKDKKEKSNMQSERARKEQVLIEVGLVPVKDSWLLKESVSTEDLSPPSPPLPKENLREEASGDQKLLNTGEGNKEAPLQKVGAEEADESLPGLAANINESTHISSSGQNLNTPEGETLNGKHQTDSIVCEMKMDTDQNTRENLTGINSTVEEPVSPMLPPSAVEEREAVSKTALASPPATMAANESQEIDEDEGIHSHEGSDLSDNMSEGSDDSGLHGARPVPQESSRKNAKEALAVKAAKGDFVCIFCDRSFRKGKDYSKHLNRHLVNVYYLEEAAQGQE
Experiment: co-IP; nuclear extract of H295R/TR SF-1 cells, salt adjusted to 150 mM; anti SF-1 or anti NRSF/REST antibody (or preimmune rabbit IgG) overnight at 4°C, Protein A magnetic beads; washes with 20 mM HEPES-KOH pH 7.5, 150 mM NaCl, 0.5 mM EDTA, 0.5% NP-40; immunoblot with the same antibodies

With “Steroidogenic Factor-1 (SF-1) (from UniProt Q13285 1-461)” the binding was “binds”.
